Results as given in PubChem BioAssay AID463183 (Sanford-Burnham Center for Chemical Genomics, 2010).
Some of the results follow. Shown are side measurements of this screen, not its main read-out; they come without a call. Compounds called inactive in the main read-out are mostly missing here.

Assay: hepatocyte lipid droplet accumulation inhibitors, confirmation, imaging, AML12 mouse hepatocytes, single concentration, high-content (AID 463183);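 note: cells counted after overnight compound exposure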
Details: BODIPY lipid droplet imaging, measured here: cell count, cytotoxicity, at 5.2 µM, droplets induced with 100 µM oleic acid
In the case of `Cc1ccccc1OCc1nnc(SCC(=O)Nc2ccc3c(c2)oc2ccccc23)n1C`, the cell count is reported as 1500 cells.
With `CCc1ccc(NC(=O)CSc2nc3ccccc3nc2N2CCCC2)cc1` the cell count was 1480 cells.
`COc1ccc(CCNC(=O)CN2C(=O)c3cccc4cccc(c34)C2=O)cc1OC` gave a cell count of 1590 cells.
`COc1cc(NC(=O)c2ccco2)c(OC)cc1NC(=O)CCC(=O)Nc1cc(C)cc(C)c1` showed a cell count of 1550 cells.
`O=c1[nH]c(=O)n(Cc2ccccc2)c2nc(-c3ccc(Oc4ccc(F)cc4)c([N+](=O)[O-])c3)n(CCO)c12` gave a cell count of 1560 cells.
Work on `COc1ccc(C2(c3ccc(OC)cc3)NC(=O)N(CC(=O)Nc3ccccc3C)C2=O)cc1` yielded a cell count of 1590 cells.
With `CC1=C/C(=N\Nc2ccccc2[N+](=O)[O-])CC(C)(C)C1` the cell count was 1590 cells.
Work on `CCOc1ccc(CCNC(=O)CN2C(=O)c3cccnc3Oc3ccc(C)cc32)cc1OCC` yielded a cell count of 1650 cells.
Work on `CCCCCCNC(=O)c1cn(CC)c2cc(N3CCN(C)CC3)c(F)cc2c1=O` yielded a cell count of 1520 cells.
For `COc1ccc(CNC(=O)N2CCN(S(=O)(=O)c3ccc(C)cc3C)CC2)cc1`, the cell count was 1600 cells.
In the case of `COc1ccc(C)cc1NC(=O)CCC(=O)Nc1ccc2nc(N3CCN(C)CC3)cc(C)c2c1`, the cell count is reported as 1580 cells.
With `O=C(Cn1nnc(-c2ccc([N+](=O)[O-])cc2)n1)NNC(=O)c1ccccc1` the cell count was 1510 cells.
`COc1cc(N2CCCC2)c(OC)cc1/C=C(/C#N)c1ccc(F)cc1` gave a cell count of 1610 cells.
`O=C1CC(/C=C/c2ccccc2)(C(=O)NC2CCCC2)N1c1ccc(S(=O)(=O)N2CCCC2)cc1` (centres undefined) gave a cell count of 1630 cells.
With `COC(=O)c1c(N2C(=O)[C@H]3[C@@H](C2=O)[C@]2(C(=O)Nc4c(C)cc(C)cc42)N2CCC[C@@H]32)sc(C)c1C` the cell count was 1580 cells.
With `CCOc1ccc(CCNC(=O)CCNC(=O)c2ccccc2Cl)cc1OCC` the cell count was 1530 cells.
Compound `CCOC(=O)c1ccc(NC(=O)CSc2nc3c(c(=O)n2CC)SC(C)C3)cc1` (centres undefined) has a cell count of 1570 cells.
With `Cc1ccc(S(=O)(=O)N2CCCCC2)cc1C(=O)N(C)CCOc1ccccc1` the cell count was 1430 cells.
Work on `O=C(Cc1cccc2ccccc12)Nc1nc(-c2cccc([N+](=O)[O-])c2)cs1` yielded a cell count of 1650 cells.
In the case of `CCc1ccc(NC(=O)CNC(=O)[C@@H]2Cc3ccccc3CN2C(=O)OC(C)(C)C)cc1`, the cell count is reported as 1500 cells.
In the case of `Cc1ccc(OCC(=O)NCc2ccc3c(c2)OCO3)c([N+](=O)[O-])n1`, the cell count is reported as 1650 cells.
`CCOc1ccccc1Nc1nnc(SC(C)C(=O)Nc2nc(-c3ccccc3)cs2)s1` (centres undefined) showed a cell count of 1560 cells.
Work on `CCCCn1c(=O)[nH]c(=O)c2c1nc(-c1ccc(-c3ccccc3)cc1)n2C` yielded a cell count of 1700 cells.
`CCCSC1=C(C#N)C(c2cccs2)C(C(=O)Nc2ccccc2)=C(C)N1` (centres undefined) gave a cell count of 1550 cells.
`O=C1C(NS(=O)(=O)c2ccccc2)=C(N2CCN(c3ccc(F)cc3)CC2)C(=O)c2ccccc21` gave a cell count of 1630 cells.
Compound `CCC(C)(C)NC(=O)C(c1ccc(OC)cc1)N(CC1CCCO1)C(=O)CCC(=O)Nc1cc(C)on1` (centres undefined) has a cell count of 1550 cells.
For `CCn1c(=O)n(CC)c2cc(N)ccc21`, the cell count was 1640 cells.
With `CCOc1ccccc1NC(=O)N1CCCC1C(=O)NCc1cccs1` (centres undefined) the cell count was 1620 cells.
In the case of `CCN(CC)S(=O)(=O)c1ccc(C(=O)NCc2ccc3[nH]c4c(c3c2)CCCC4)cc1`, the cell count is reported as 1510 cells.
Work on `COc1ccc(NC(=O)Cc2c(C)n(C(=O)c3ccc(Cl)cc3)c3ccc(OC)cc23)cc1` yielded a cell count of 1570 cells.
Compound `CC(C)C(=O)N(Nc1nc2ccccc2s1)C(=O)C(C)C` has a cell count of 1600 cells.
Compound `COc1ccc(NC(=O)CCC(=O)Nc2cc(OC)c(NC(=O)c3cccs3)cc2OC)cc1` has a cell count of 1690 cells.
In the case of `Cc1cccc(NC(=O)N2CCC(C(=O)c3ccc(F)cc3)CC2)c1`, the cell count is reported as 1570 cells.
With `Clc1ccc(Nc2nc(NCCN3CCOCC3)nc(N3CCOCC3)n2)cc1` the cell count was 1140 cells.
For `CCOc1ccc(CCNC(=O)Nc2cccc(OC)c2)cc1OCC`, the cell count was 1620 cells.
With `Cc1ccc(-n2nnnc2SCC(=O)Nc2ncc(Cc3ccccc3Cl)s2)cc1` the cell count was 1580 cells.
With `N/C(Cc1ccc(Cl)cc1Cl)=N\OC(=O)c1ccc(Br)o1` the cell count was 1610 cells.
In the case of `Cc1cccc(Oc2ccc(Cl)cc2N)c1`, the cell count is reported as 1600 cells.
Work on `COc1ccc(-c2nc3c(c4nnc(SC(C)C(=O)Nc5ccc(C)cc5)n24)COC(C)(C)C3)cc1` (centres undefined) yielded a cell count of 1640 cells.
